Our source for the IC50 values is patent US20080221132A1, “Multi-Functional Small Molecules as Anti-Proliferative Agents” (priority 2006, published 2008).

Holding throughout (assay type): cell-based
For assay [1], the system named is Breast_MCF7 (MCF-7, breast adenocarcinoma). Kind of assay: Cell proliferation assay (ATPlite), MCF7. To be noted: Homo sapiens, TABLE D, read-out: IC50 grading, MCF-7. How it is done: (§1) A representative number of compounds were assayed against several different cell lines using the cell proliferation assay:
(§2) Cell Proliferation Assay:
(§3) Cancer cell lines were plated at 5,000 to 10,000 per well in 96-well flatted bottomed plates with various concentration of compounds. The cells were incubated with compounds for 72 hours in the presence of 0.5% of fetal bovine serum. Growth inhibition was accessed by adenosine triphosphate (ATP) content assay using Perkin Elmer ATPlite kit. ATPlite is an ATP monitoring system based on firefly luciferase. Briefly, 25 μl of mammalian cell lysis solution was added to 50 μl of phenol red-free culture medium per well to lyse the cells and stabilize the ATP. 25 μl of substrate solution was then added to the well and subsequently the luminescence was measured.
Background: ATP-based viability assays read luminescence as a measure of living cells.

Assay [2] has as its system Prostate_22RV1 (22RV1, prostate carcinoma). Kind of assay: Cell proliferation assay (ATPlite), 22RV1. To be noted: Homo sapiens, TABLE D, read-out: IC50 grading, 22RV1. How it is done:
as §1, §2, §3

Assay [3] has as its system Epidermoid_A431 (A431, epidermoid carcinoma). Kind of assay: Cell proliferation assay (ATPlite), A431. The following applies: Homo sapiens, A-431, TABLE D, read-out: IC50 grading, A431. How it is done: as §1, §2, §3
Assay [4] deals with Breast_MDAMB468 (MDA-MB-468, breast adenocarcinoma). Kind of assay: Cell proliferation assay (ATPlite), MDA-MB-468. To be noted: Homo sapiens, TABLE D, read-out: IC50 grading, MDA-MB-468. How it is done: as §1, §2, §3
Assay [5] has as its system Breast_SkBr3 (SKBr3, breast carcinoma). Kind of assay: Cell proliferation assay (ATPlite), SkBr3. To be noted: Homo sapiens, SK-BR-3, TABLE D, read-out: IC50 grading, SKBr3. Here is the method:
as §1, §2, §3

Assay [6] concerns MDA-MB-231 (breast adenocarcinoma). Kind of assay: Cell proliferation assay (ATPlite), MDA-MB-231. The following applies: Homo sapiens, TABLE D, read-out: IC50 grading, MDA-MB-231. Here is the method:
as §1, §2, §3

The test system of assay [7] is Prostate_PC3 (PC-3, prostate adenocarcinoma). Kind of assay: Cell proliferation assay (ATPlite), PC3. To be noted: TABLE D, read-out: IC50 grading, PC-3. Here is the method: as §1, §2, §3
For assay [8], the system named is Colon_HCT116 (HCT116, colon cancer). Kind of assay: Cell proliferation assay (ATPlite), HCT116. To be noted: Homo sapiens, HCT-116, TABLE D, read-out: IC50 grading, HCT116. Here is the method:
as §1, §2, §3

A further assay deals with Caki-1 (renal carcinoma). Kind of assay: Cell proliferation assay (ATPlite), Caki-1. To be noted: Homo sapiens, TABLE D, read-out: IC50 grading, Caki-1. How it is done:
as §1, §2, §3

The structures appear in SMILES notation. pIC50: −log10 of the molar value.

Broadly, the pIC50 is −log10 of the IC50, conventionally taken in molar units. As to `O=C(CCCCCCC(=O)Nc1ccccc1)NO` [SAHA, Suberoylanilide hydroxamic acid, reference compound], the pIC50 in assay [1] was 5.30 to 6.30; in assay [2] it was 6.30 to 7.30; in [3] it was 5.30 to 6.30; in [4] it was 5.30 to 6.30; in [5] it was 5.30 to 6.30; in assay [6] it was 6.30 to 7.30. Further, the pIC50 was 5.30 to 6.30 in assay [7], 5.30 to 6.30 in assay [8] and 6.30 to 7.30 in the assay with Caki-1 (renal carcinoma).
